# Results from the supplement of paper PMC8728848.
# The list shows a part of the results.
# B1: CM2 (Cordyceps militaris) (protein)
# chain: MEIAEQNVGKSCAIVNLIPPKEGSNIWTAKQVTIARNLPPNRGTGRHQIDWSFGPVKVTGYVDTTNWEIGVTVSIMGIDLGTVYGNLRDGVVLNVDLFLAKGQVRFYLKNGNEVWVHLSVEIRFDGKFEGDYKIITV
# What was measured:
# Experiment in all cases: glycan array binding signal (z-score within array); higher = stronger binding
# Conditions in all cases: glycan notation: IUPAC condensed, linker removed
# [1] = target: Neu5Ac(a2-6)Gal(b1-4)GlcNAc(b1-2)Man(a1-3)[Man(a1-6)]Man(b1-4)GlcNAc(b1-4)GlcNAc
# Method in brief: (§1)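 The binding signal is a Z-score computed within each array and averaged over linkers. Arrays of the same protein sequence at different concentrations or buffers were also averaged together. Data originate from 3228 arrays in the Consortium for Functional Glycomics database, kept only where the protein sequence was available.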
# [2] = target: Neu5Ac(a2-6)Gal(b1-4)GlcNAc(b1-2)Man(a1-3)[Neu5Ac(a2-3)Gal(b1-4)GlcNAc(b1-2)Man(a1-6)]Man(b1-4)GlcNAc(b1-4)GlcNAc
# Method in brief: as §1
# [3] = target: Neu5Ac(a2-6)Gal(b1-4)GlcNAc(b1-2)Man(a1-3)[Neu5Ac(a2-6)Gal(b1-4)GlcNAc(b1-2)Man(a1-6)]Man(b1-4)GlcNAc(b1-4)GlcNAc
# Method in brief: as §1
# [4] = target: Neu5Ac(a2-6)Gal(b1-4)GlcNAc(b1-2)Man(a1-3)[Neu5Ac(a2-6)Gal(b1-4)GlcNAc(b1-2)Man(a1-6)]Man(b1-4)GlcNAc(b1-4)[Fuc(a1-6)]GlcNAc
# Method in brief: as §1
# [5] = target: Neu5Ac(a2-6)Gal(b1-4)GlcNAc(b1-2)Man(a1-6)Man(b1-4)GlcNAc(b1-4)GlcNAc
# Method in brief: as §1
# [6] = target: Neu5Ac(a2-6)Gal(b1-4)GlcNAc(b1-2)Man(a1-6)[Gal(b1-4)GlcNAc(b1-2)Man(a1-3)]Man(b1-4)GlcNAc(b1-4)GlcNAc
# Method in brief: as §1
# [7] = target: Neu5Ac(a2-6)Gal(b1-4)GlcNAc(b1-2)Man(a1-6)[GlcNAc(b1-2)Man(a1-3)]Man(b1-4)GlcNAc(b1-4)GlcNAc
# Method in brief: as §1
# [8] = target: Neu5Ac(a2-6)Gal(b1-4)GlcNAc(b1-2)Man(a1-6)[Man(a1-3)]Man(b1-4)GlcNAc(b1-4)GlcNAc
# Method in brief: as §1
# [9] = target: Neu5Ac(a2-6)Gal(b1-4)GlcNAc(b1-2)[Neu5Ac(a2-6)Gal(b1-4)GlcNAc(b1-4)]Man(a1-3)[GlcNAc(b1-4)][Neu5Ac(a2-6)Gal(b1-4)GlcNAc(b1-2)[Neu5Ac(a2-6)Gal(b1-4)GlcNAc(b1-6)]Man(a1-6)]Man(b1-4)GlcNAc(b1-4)GlcNAc
# Method in brief: as §1
# [10] = target: Neu5Ac(a2-6)Gal(b1-4)GlcNAc(b1-2)[Neu5Ac(a2-6)Gal(b1-4)GlcNAc(b1-4)]Man(a1-3)[GlcNAc(b1-4)][Neu5Ac(a2-6)Gal(b1-4)GlcNAc(b1-4)Man(a1-6)]Man(b1-4)GlcNAc(b1-4)GlcNAc
# Method in brief: as §1
# [11] = target: Neu5Ac(a2-6)Gal(b1-4)GlcNAc(b1-2)[Neu5Ac(a2-6)Gal(b1-4)GlcNAc(b1-6)]Man(a1-6)[Neu5Ac(a2-6)Gal(b1-4)GlcNAc(b1-2)Man(a1-3)][GlcNAc(b1-4)]Man(b1-4)GlcNAc(b1-4)GlcNAc
# Method in brief: as §1
# [12] = target: Neu5Ac(a2-6)Gal(b1-4)GlcNAc(b1-3)Gal(b1-3)GlcNAc
# Method in brief: as §1
# [13] = target: Neu5Ac(a2-6)Gal(b1-4)GlcNAc(b1-3)Gal(b1-4)GlcNAc
# Method in brief: as §1
# [14] = target: Neu5Ac(a2-6)Gal(b1-4)GlcNAc(b1-3)Gal(b1-4)GlcNAc(b1-2)Man(a1-3)[Neu5Ac(a2-6)Gal(b1-4)GlcNAc(b1-3)Gal(b1-4)GlcNAc(b1-2)Man(a1-6)]GalNAc
# Method in brief: as §1
# [15] = target: Neu5Ac(a2-6)Gal(b1-4)GlcNAc(b1-3)Gal(b1-4)GlcNAc(b1-3)Gal(b1-4)GlcNAc
# Method in brief: as §1
# [16] = target: Neu5Ac(a2-6)Gal(b1-4)GlcNAc(b1-3)Gal(b1-4)GlcNAc(b1-3)Gal(b1-4)GlcNAc(b1-2)Man(a1-3)[Neu5Ac(a2-6)Gal(b1-4)GlcNAc(b1-3)Gal(b1-4)GlcNAc(b1-3)Gal(b1-4)GlcNAc(b1-2)Man(a1-6)]GalNAc
# Method in brief: as §1
# [17] = target: Neu5Ac(a2-6)Gal(b1-4)GlcNAc(b1-3)Gal(b1-4)GlcNAc(b1-3)GalNAc
# Method in brief: as §1
# [18] = target: Neu5Ac(a2-6)Gal(b1-4)GlcNAc(b1-3)Gal(b1-4)GlcNAc(b1-3)[Neu5Ac(a2-6)Gal(b1-4)GlcNAc(b1-3)Gal(b1-4)GlcNAc(b1-6)]GalNAc
# Method in brief: as §1
# [19] = target: Neu5Ac(a2-6)Gal(b1-4)GlcNAc(b1-3)Gal(b1-4)GlcNAc(b1-6)[Gal(b1-3)]GalNAc
# Method in brief: as §1
# [20] = target: Neu5Ac(a2-6)Gal(b1-4)GlcNAc(b1-3)Gal(b1-4)[Fuc(a1-3)]GlcNAc(b1-3)Gal(b1-4)[Fuc(a1-3)]GlcNAc
# Method in brief: as §1
# [21] = target: Neu5Ac(a2-6)Gal(b1-4)GlcNAc(b1-3)GalNAc
# Method in brief: as §1
# [22] = target: Neu5Ac(a2-6)Gal(b1-4)GlcNAc(b1-3)[Neu5Ac(a2-6)Gal(b1-4)GlcNAc(b1-6)]GalNAc
# Method in brief: as §1
# [23] = target: Neu5Ac(a2-6)Gal(b1-4)GlcNAc(b1-6)GalNAc
# Method in brief: as §1
# [24] = target: Neu5Ac(a2-6)Gal(b1-4)GlcNAc(b1-6)[Gal(b1-3)GlcNAc(b1-3)]Gal(b1-4)Glc
# Method in brief: as §1
# [25] = target: Neu5Ac(a2-6)Gal(b1-4)GlcNAc(b1-6)[Gal(b1-3)]GalNAc
# Method in brief: as §1
# [26] = target: Neu5Ac(a2-6)Gal(b1-4)GlcNAc6S
# Method in brief: as §1
# Neu5Ac(a2-6)GalNAc = target: Neu5Ac(a2-6)GalNAc
# Method in brief: as §1
# [27] = target: Neu5Ac(a2-6)GalNAc(b1-4)GlcNAc
# Method in brief: as §1
# [28] = target: Neu5Ac(a2-6)GalNAc(b1-4)GlcNAc6S
# Method in brief: as §1
# [29] = target: Neu5Ac(a2-6)GlcNAc(b1-4)GlcNAc
# Method in brief: as §1
# [30] = target: Neu5Ac(a2-6)GlcNAc(b1-4)GlcNAc(b1-4)GlcNAc
# Method in brief: as §1
binder,measurement,setting,value
B1,glycan array binding signal (z-score),[1],-0.907
same,glycan array binding signal (z-score),[2],-0.384
same,glycan array binding signal (z-score),[3],-0.511
same,glycan array binding signal (z-score),[4],-0.646
same,glycan array binding signal (z-score),[5],-0.021
same,glycan array binding signal (z-score),[6],0.098
same,glycan array binding signal (z-score),[7],-0.185
same,glycan array binding signal (z-score),[8],-0.151
same,glycan array binding signal (z-score),[9],-0.02
same,glycan array binding signal (z-score),[10],1.04
same,glycan array binding signal (z-score),[11],-0.924
same,glycan array binding signal (z-score),[12],-0.267
same,glycan array binding signal (z-score),[13],-0.874
same,glycan array binding signal (z-score),[14],-1.31
same,glycan array binding signal (z-score),[15],0.418
same,glycan array binding signal (z-score),[16],-0.134
same,glycan array binding signal (z-score),[17],-0.434
same,glycan array binding signal (z-score),[18],0.217
same,glycan array binding signal (z-score),[19],-0.589
same,glycan array binding signal (z-score),[20],-0.117
same,glycan array binding signal (z-score),[21],-0.581
same,glycan array binding signal (z-score),[22],-0.481
same,glycan array binding signal (z-score),[23],0.753
same,glycan array binding signal (z-score),[24],-1.25
same,glycan array binding signal (z-score),[25],1.06
same,glycan array binding signal (z-score),[26],-1.69
same,glycan array binding signal (z-score),Neu5Ac(a2-6)GalNAc,0.447
same,glycan array binding signal (z-score),[27],-0.06
same,glycan array binding signal (z-score),[28],-0.442
same,glycan array binding signal (z-score),[29],0.479
same,glycan array binding signal (z-score),[30],-0.919

# Given tab-delimited: part of the list above
binder	measurement	setting	value
B1	glycan array binding signal (z-score)	[29]	0.479
same	glycan array binding signal (z-score)	[30]	-0.919
